Test results published in article PMC11225194.
Results are given in words; binding and its absence hold for the method and conditions named. In cells and extracts the contact can be indirect. A yes stands for co-enrichment or nearness to the bait. Other partners may have been found.

Amino acid sequences for entries named in this document (tags omitted).
UniProt P68104: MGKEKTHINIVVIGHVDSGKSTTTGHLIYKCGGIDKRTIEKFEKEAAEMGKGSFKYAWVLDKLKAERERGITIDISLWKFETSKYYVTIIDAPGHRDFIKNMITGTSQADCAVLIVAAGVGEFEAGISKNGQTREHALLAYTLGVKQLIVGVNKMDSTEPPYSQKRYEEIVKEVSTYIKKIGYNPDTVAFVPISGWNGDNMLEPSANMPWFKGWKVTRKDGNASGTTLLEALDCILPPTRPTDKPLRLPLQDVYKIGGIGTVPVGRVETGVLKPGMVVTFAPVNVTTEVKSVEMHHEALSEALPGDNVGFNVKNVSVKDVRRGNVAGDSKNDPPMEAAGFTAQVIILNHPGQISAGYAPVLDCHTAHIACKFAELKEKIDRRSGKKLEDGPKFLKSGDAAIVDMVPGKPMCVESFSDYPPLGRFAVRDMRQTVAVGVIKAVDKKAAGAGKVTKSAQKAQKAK

Molecular target: T1, UCHL3 overexpressed in HUH7 cells (lentivirus) (UniProt P15374)
T1 sequence: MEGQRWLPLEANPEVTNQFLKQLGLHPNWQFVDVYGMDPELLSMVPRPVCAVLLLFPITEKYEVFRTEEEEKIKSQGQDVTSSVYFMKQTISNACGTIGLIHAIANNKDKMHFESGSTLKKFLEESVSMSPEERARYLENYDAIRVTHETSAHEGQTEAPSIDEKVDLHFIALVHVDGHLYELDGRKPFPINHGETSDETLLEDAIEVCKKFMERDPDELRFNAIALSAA
Test: affinity purification with mass spectrometry; immunoprecipitation with UCHL3 antibody from total protein of HUH7 cells overexpressing UCHL3, IgG as negative control; gel strips digested, LC-MS

Q: “Eukaryotic translation elongation factor 1 alpha 1 (EEF1A1), endogenous in HCC cells (from UniProt P68104 1-462)” was tested. Which binding did it give?
A: binds
